Measurements taken from publication PMC7819943, “Rice protein-binding microarrays: a tool to detect cis-acting elements near promoter regions in rice”.
Some of the results follow.

The chains behind the UniProt entries cited, without tags or fusion partners.
UniProt Q0JBA9, entry or part of it: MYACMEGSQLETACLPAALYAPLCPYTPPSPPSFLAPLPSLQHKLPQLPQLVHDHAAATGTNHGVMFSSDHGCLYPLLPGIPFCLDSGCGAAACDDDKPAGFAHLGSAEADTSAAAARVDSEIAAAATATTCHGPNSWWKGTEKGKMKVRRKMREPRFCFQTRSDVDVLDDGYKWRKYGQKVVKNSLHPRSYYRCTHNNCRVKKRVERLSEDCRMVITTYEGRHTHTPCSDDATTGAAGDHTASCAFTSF

Molecular target: OsWRKY34 (Oryza sativa, UniProt Q0JBA9 1-250)
Test: protein-binding microarray (RPBM); PBS, 2% BSA, 51.3 ng/ul salmon testes DNA, 50 uM zinc acetate, 200 nM TF, 25 C, 1 h; high values mean tight binding
Conditions: protein: recombinant; tags: N-terminal polyhistidine and DsRed monomer fusion (pET32a); label: CyDye5-dUTP incorporated in the synthesized complementary strand; 3' TTTTT single-stranded linker to array surface; dsDNA, one strand shown
How it was run: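 A custom Agilent array was converted to double-stranded form by primer extension with Cy5-dUTP and blocked with 2% BSA. Protein at 200 nM in PBS with 2% BSA, salmon testes DNA and 50 µM zinc acetate was applied for 1 h at 25 °C, followed by washing. The proteins were polyhistidine–DsRed N-terminal fusions of transcription factors, expressed in E. coli BL21-CodonPlus and Ni–NTA-purified. The binding signal is per-feature fluorescence intensity (arbitrary units) from an Axon 4000B scanner.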

| Sequence | binding signal |
| --- | --- |
| ACGACCACCGCTCACCGTTGTAGGGTTCAACGCCGCCGCCCGGAGTCACCTAGTGCAG | 11600 fluorescence intensity (a.u.) |
| CTTCACTGCCTTCACTTCCCTGCTCAGCTCAGCAGCTCAGCGGAGTCACCTAGTGCAG | 8180 fluorescence intensity (a.u.) |
| TTATATAAGTCTATTTTTTGTCCCTATATTTTTTTTATTTCGGAGTCACCTAGTGCAG | 8370 fluorescence intensity (a.u.) |
| GTGTTGCCGTTGTATGGGCATATGCATTCTTCCTCACTGCCGGAGTCACCTAGTGCAG | 8310 fluorescence intensity (a.u.) |
| ACTAATGATCTATTATACCTTTGTCCTGCGTTAACCAAAGCGGAGTCACCTAGTGCAG | 9050 fluorescence intensity (a.u.) |
| CCCCAACTCCGATCTCGTCTAAATATCTCTCTCTCTCGTCCGGAGTCACCTAGTGCAG | 8820 fluorescence intensity (a.u.) |
| CGTCTCGTGTCTTCTCGTCTCGACCCATCCATCCATCCCACGGAGTCACCTAGTGCAG | 8570 fluorescence intensity (a.u.) |
| GTCTCCCACGTGTCCCATTCGCATCCGATTTGGCAATCTCCGGAGTCACCTAGTGCAG | 10300 fluorescence intensity (a.u.) |
| TTTGTGAAATTTACTCTTTTCTTTTCGGTTGTTTGCTTTTCGGAGTCACCTAGTGCAG | 10200 fluorescence intensity (a.u.) |
| AACTGCACTTCCATCCACCTGATGTCGAGTTCCAGAAGGACGGAGTCACCTAGTGCAG | 8090 fluorescence intensity (a.u.) |
| CAAAAGAGATGTGGTTAGCGTTGACCCCGTTGACTCGAAGCGGAGTCACCTAGTGCAG | 15200 fluorescence intensity (a.u.) |
| TCCTATCCACATATCCGACGAGTTAAAACAAGCATTCTCTCGGAGTCACCTAGTGCAG | 8470 fluorescence intensity (a.u.) |
| TCACCGTCGCTGTTCGCCTTTGCACGGACGTCACCACCACCGGAGTCACCTAGTGCAG | 13700 fluorescence intensity (a.u.) |
| GACGACATTTATGTTTCGGCATGTGCATACTTCTGTTGTCCGGAGTCACCTAGTGCAG | 8670 fluorescence intensity (a.u.) |
| GCCGCCGCCGCTGCCTCCTTCCCGCGCAGCGCAGCGCGCGCGGAGTCACCTAGTGCAG | 8080 fluorescence intensity (a.u.) |
| TTCCAACTACCTAGCTCAGCTTAGTCTCTGGTTGACCATTCGGAGTCACCTAGTGCAG | 8450 fluorescence intensity (a.u.) |
| CAAAGCAACCATGTATTTGTGACTCCTCTCCGATATTTTCCGGAGTCACCTAGTGCAG | 8440 fluorescence intensity (a.u.) |
| ATCTCGTCCTTCTATACGATTCATTAGCTTAAGGGCAATTCGGAGTCACCTAGTGCAG | 8240 fluorescence intensity (a.u.) |
| GTGTGTGAAATTGATGTTTTGACTGGAACTTCTCTAGCGTCGGAGTCACCTAGTGCAG | 8460 fluorescence intensity (a.u.) |
| GCTACACCATTTGCTGCTCATCTTGTCAACCATGCATAACCGGAGTCACCTAGTGCAG | 8260 fluorescence intensity (a.u.) |
| GAGTGTAACGGGTGGGGTGGTTTGGAAGGTGATGAGGTATCGGAGTCACCTAGTGCAG | 11300 fluorescence intensity (a.u.) |
| CCCGACCCAAACCTCACCGCCGCCGTCGCCGTTGCCGCCGCGGAGTCACCTAGTGCAG | 8310 fluorescence intensity (a.u.) |
| TTCTTGTTGCTCTATGTATGGTGAATTGGCTGCAAATCTACGGAGTCACCTAGTGCAG | 8120 fluorescence intensity (a.u.) |
| AGCCAGTCTCCGACCCCTTCACCAAACGATGCCACGCCGGCGGAGTCACCTAGTGCAG | 8860 fluorescence intensity (a.u.) |
| AAAGGCCCAACTATACTGTGCCCACATCTCAGCCCACGTACGGAGTCACCTAGTGCAG | 8420 fluorescence intensity (a.u.) |
| TTTCACTTGCGCCAGATTTTTGGCTATTGTCTTTCACTTTCGGAGTCACCTAGTGCAG | 8240 fluorescence intensity (a.u.) |
| ATTCTGTTGCGTCATCATGTTCCTGTCTACAGAGCTATACCGGAGTCACCTAGTGCAG | 8840 fluorescence intensity (a.u.) |

| Sequence | binding signal |
| --- | --- |
| GCCAGTGCACGGCCCACTTCCGCCGCGCCCGCGCCCGCGCCGGAGTCACCTAGTGCAG | 8750 fluorescence intensity (a.u.) |
| CTCCTTCCATTTGTACCCACGTCTGCTGTCCATTGACCGGCGGAGTCACCTAGTGCAG | 9610 fluorescence intensity (a.u.) |
| CTTCCCGCATTCCGTTCCTGCGCGTGGACCCCACCTGCAGCGGAGTCACCTAGTGCAG | 10000 fluorescence intensity (a.u.) |
| GGTGGGATATCGGGCGCTTGGGCTTCAACTCACACACATGCGGAGTCACCTAGTGCAG | 10600 fluorescence intensity (a.u.) |
| GGGGCTGCTTGGGCTTGTGTTGTTTTTTTGGCAGATGCATCGGAGTCACCTAGTGCAG | 19100 fluorescence intensity (a.u.) |
| AGAAGATCCAGTCTCAGTCTATCTCTCTCATATTCCTTCGCGGAGTCACCTAGTGCAG | 8560 fluorescence intensity (a.u.) |
| GGGACATACGTTTCTGATGTGTGGGTCCATGAGGTTGGTCCGGAGTCACCTAGTGCAG | 8210 fluorescence intensity (a.u.) |
| CTCGTTGGTGATGACAGTGACGGAATCCCCATGTTGACCTCGGAGTCACCTAGTGCAG | 8210 fluorescence intensity (a.u.) |
| TCCTAGCTGATCGACTCCATCCCACTCCTGTTTTTACACACGGAGTCACCTAGTGCAG | 11000 fluorescence intensity (a.u.) |
| TTGTTTTTCTTGTTTTGCTTTTTTCTCAATTGGATAGTCCCGGAGTCACCTAGTGCAG | 12400 fluorescence intensity (a.u.) |
| AACGTAATTTGGCTCTCGCGTTCCTAACATGCTCTCTCGACGGAGTCACCTAGTGCAG | 10600 fluorescence intensity (a.u.) |
| GTGGTTTCCGTGTCCAATATTTGACCGTCCATCTTATTTACGGAGTCACCTAGTGCAG | 8090 fluorescence intensity (a.u.) |
| TATTAAATCATTTAATTTTAGCTATTGTTTTTTATTTATTCGGAGTCACCTAGTGCAG | 9250 fluorescence intensity (a.u.) |
| TCCGGCCCATAAGTGCTGCTTCTGCTTCTTCTTCAGCAACCGGAGTCACCTAGTGCAG | 11100 fluorescence intensity (a.u.) |
| ATTCTGTTGTTTATCCATCTTCCTTGACAGTTCTTGCATTCGGAGTCACCTAGTGCAG | 11000 fluorescence intensity (a.u.) |
| GGGCAATGTTCTTGTGTTGTTTATCTTGGAATCAAAAGCTCGGAGTCACCTAGTGCAG | 10900 fluorescence intensity (a.u.) |
| TCGGCTCGGCTCGGCTACTCCTCTCTCTCTCTTTCTCTCCCGGAGTCACCTAGTGCAG | 11500 fluorescence intensity (a.u.) |
| ACTCATCTGACCTCCCTCCTTTCATATGTACTGTTTGTTACGGAGTCACCTAGTGCAG | 8960 fluorescence intensity (a.u.) |
| TTCCATGCTTTTTTCTTGTCCACTCTGCTATCTGGACTCTCGGAGTCACCTAGTGCAG | 10700 fluorescence intensity (a.u.) |
| CTTGTTCCATCCCGTTATAGGTCGTAGTCGCCCATGCATTCGGAGTCACCTAGTGCAG | 8170 fluorescence intensity (a.u.) |
| ATTATTTCACACTTTAGCTACTCCCAATATAATTATTTTCCGGAGTCACCTAGTGCAG | 9310 fluorescence intensity (a.u.) |
| AATTTTCTCTGTTAATTTTTTGGGTAAAATTCTTCCGTTCCGGAGTCACCTAGTGCAG | 8720 fluorescence intensity (a.u.) |
| GACAGCCACTGACGTCACCCCATGTCCTTCTTCTCGGCTACGGAGTCACCTAGTGCAG | 11400 fluorescence intensity (a.u.) |
| GGGGCCCACATCACTCTCTCACTTACATGTGGGGCCCACGCGGAGTCACCTAGTGCAG | 8400 fluorescence intensity (a.u.) |
| CAGGCGACCACCTCCAGCTCCGCGCCATCTCCATGTCATCCGGAGTCACCTAGTGCAG | 10800 fluorescence intensity (a.u.) |
| CATCCGTTGAAGGTGGGTTTTTGTGCTGTTAAATTCCGGACGGAGTCACCTAGTGCAG | 8020 fluorescence intensity (a.u.) |
| AGGAAAATCTTAGCGTTCTCATTTACCATTCAATTTTTTTCGGAGTCACCTAGTGCAG | 11300 fluorescence intensity (a.u.) |

In a second layout: results already given
Sequence	binding signal
GGTGGGATATCGGGCGCTTGGGCTTCAACTCACACACATGCGGAGTCACCTAGTGCAG	10600 fluorescence intensity (a.u.)
GGGGCTGCTTGGGCTTGTGTTGTTTTTTTGGCAGATGCATCGGAGTCACCTAGTGCAG	19100 fluorescence intensity (a.u.)
